The results in this text go back to article PMC7819943, “Rice protein-binding microarrays: a tool to detect cis-acting elements near promoter regions in rice”.

This is one part of the list.

This experiment addresses T1, OsSMF1 (Oryza sativa, UniProt Q6ZLB0 1-436).
T1 sequence: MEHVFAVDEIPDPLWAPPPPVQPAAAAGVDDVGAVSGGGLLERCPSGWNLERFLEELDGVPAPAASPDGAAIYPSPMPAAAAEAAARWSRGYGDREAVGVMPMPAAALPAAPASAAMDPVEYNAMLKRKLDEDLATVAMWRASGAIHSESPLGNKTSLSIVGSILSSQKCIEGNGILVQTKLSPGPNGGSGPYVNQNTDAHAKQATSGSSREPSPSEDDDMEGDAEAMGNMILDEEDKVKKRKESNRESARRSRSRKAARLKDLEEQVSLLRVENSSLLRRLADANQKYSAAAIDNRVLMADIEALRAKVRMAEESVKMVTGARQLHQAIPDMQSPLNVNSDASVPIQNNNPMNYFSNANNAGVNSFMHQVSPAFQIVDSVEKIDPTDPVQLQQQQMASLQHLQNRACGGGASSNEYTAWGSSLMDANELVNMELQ
As to the kind of experiment: protein-binding microarray (RPBM); PBS, 2% BSA, 51.3 ng/ul salmon testes DNA, 50 uM zinc acetate, 200 nM TF, 25 C, 1 h; high values mean tight binding. The following applies: protein: recombinant; tags: N-terminal polyhistidine and DsRed monomer fusion (pET32a); chain copies: 2; label: CyDye5-dUTP incorporated in the synthesized complementary strand; 3' TTTTT single-stranded linker to array surface; dsDNA, one strand shown. In short, it runs like this:
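The binding signal for each feature is its fluorescence intensity in arbitrary units. An Axon 4000B scanner was used to read a custom Agilent array that had been made double-stranded with Cy5-dUTP primer extension, blocked with 2% BSA, incubated at 25 °C for 1 h with 200 nM protein in PBS, 2% BSA, salmon testes DNA and 50 µM zinc acetate, and washed. The protein was an N-terminal polyhistidine–DsRed transcription factor fusion from E. coli BL21-CodonPlus, purified on Ni–NTA.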
Regarding “GCCCGTCGGTGAGTGGTGACTTGCCGTTTTCGCCAATAAACGGAGTCACCTAGTGCAG”, the binding signal is 6000 fluorescence intensity (a.u.).
Consider “TTAGCAGCCGCATCTCCAGACACAACCGATGTCATCAAGCCGGAGTCACCTAGTGCAG”, for which the binding signal is 3920 fluorescence intensity (a.u.).
For the sequence “TAAAATAGACTTATGTGCAATATAAAGGTTTTGATTATTTCGGAGTCACCTAGTGCAG”, the binding signal is 3440 fluorescence intensity (a.u.).
For “ACTTTCTGTATCTATATATACGTAAGCACGTCCTGATTCTCGGAGTCACCTAGTGCAG”, the binding signal was 3230 fluorescence intensity (a.u.).
The same measure for “ACGAGAAGTGACTCGCCTGACCGACCGAACCATCCGAAAGCGGAGTCACCTAGTGCAG”: 3410 fluorescence intensity (a.u.); for “TTGTTAACCATCACTGCTGGGTATGCGTGGCTCAAAGGCTCGGAGTCACCTAGTGCAG”: 3290 fluorescence intensity (a.u.).
Regarding “ATAAAGCTAGCAACAGGTATAGGCGATGTGTGTGCTTGACCGGAGTCACCTAGTGCAG”, the binding signal is 25500 fluorescence intensity (a.u.).
For the sequence “CAGCCTCTCGTTCAGGTTGACCATGACACGTTCAGGAACCCGGAGTCACCTAGTGCAG”, the binding signal is 4080 fluorescence intensity (a.u.).
Regarding “CGCCGCGCACTCGTCGAACGTCATGTTCCCGACGAGCGTCCGGAGTCACCTAGTGCAG”, the binding signal was 3800 fluorescence intensity (a.u.).
For “GGATCGCCACATAATAATACCATCCCCTCCTCCCTCTCGTCGGAGTCACCTAGTGCAG”, the binding signal is 3140 fluorescence intensity (a.u.).
On to “AGGTTGAGTTCAAACTTCAAAGCAGCACTACTTTCATACACGGAGTCACCTAGTGCAG”, for which the binding signal is 23100 fluorescence intensity (a.u.).
Consider “TGATGAGACAGGCATGGTTGATTGATGTGTGGACAAAGCTCGGAGTCACCTAGTGCAG”, for which the binding signal is 3350 fluorescence intensity (a.u.).
On to “AAGCTTACAACATGTTCTATAATTTATTTAATTCTACAAACGGAGTCACCTAGTGCAG”, for which the binding signal is 45700 fluorescence intensity (a.u.).
On to “TATCACGCTGGGACTGGTAGAATCTGATACTGATAGTTGTCGGAGTCACCTAGTGCAG”, for which the binding signal is 4320 fluorescence intensity (a.u.).
Turning to “ACCTTGGCCTGTTAAGTGCACAAGGCCCATGTGGCATGCCCGGAGTCACCTAGTGCAG”, the binding signal is 4440 fluorescence intensity (a.u.).
On to “GTGCACACTTGTACTTGTCATTGTACGTATTTTCGTCATGCGGAGTCACCTAGTGCAG”, for which the binding signal is 4130 fluorescence intensity (a.u.).
Regarding “AGCAAGTAGAGTACACTGCATTGGTGTTGGGAAAATGGGACGGAGTCACCTAGTGCAG”, the binding signal was 20100 fluorescence intensity (a.u.).
The same measure for “TCTTATGTCAATTAGACCAAAGGGATGGATATTAAATGATCGGAGTCACCTAGTGCAG”: 30200 fluorescence intensity (a.u.); for “GCCTCTCAACTGCACCAGCTAATTCAGTCATCGTAAAGGACGGAGTCACCTAGTGCAG”: 3240 fluorescence intensity (a.u.); for “AGCGGAGTGGCCACTGTCAGCATGACCTCAAGCATCTTTTCGGAGTCACCTAGTGCAG”: 4460 fluorescence intensity (a.u.).
For the sequence “GTTTTGAACCCAGTAGAGTCAGCAGAGAGCATCTCGACAACGGAGTCACCTAGTGCAG”, the binding signal is 3380 fluorescence intensity (a.u.).
Regarding “TAACCTGGGGTTCTCCATCGGCACGCTGCAGTACGTGGTGCGGAGTCACCTAGTGCAG”, the binding signal is 4760 fluorescence intensity (a.u.).
As for “ACACACACACACACATATACATACCTATATCAACCTAATTCGGAGTCACCTAGTGCAG”, the binding signal is 3330 fluorescence intensity (a.u.).
For “GCTGATAACGTGTTGAATGTGGATAGAATTGATTGAGCGACGGAGTCACCTAGTGCAG”, the binding signal is 4520 fluorescence intensity (a.u.).
As for “CCGGCGAGAATAGCCAAGAACGCGACGCGACCACACCCAACGGAGTCACCTAGTGCAG”, the binding signal was 3220 fluorescence intensity (a.u.).
As to “AAAAGATGATGTCATTTCGTTACTACTCCCTTTGTCCTAGCGGAGTCACCTAGTGCAG”, the binding signal was 18600 fluorescence intensity (a.u.).
With “TCCCCAGTCGCGGCCGGAGCCGACGTCGTCCCCATCCGCTCGGAGTCACCTAGTGCAG”, the binding signal was 3970 fluorescence intensity (a.u.).
Turning to “CAGGGAGTCGTCGTCACGGCTGCCATGCGGCAGAGCCCCTCGGAGTCACCTAGTGCAG”, the binding signal is 3560 fluorescence intensity (a.u.).
Turning to “CATGTTGACTCTGTTTAATTCCACATCGTCTTCCTTGATCCGGAGTCACCTAGTGCAG”, the binding signal is 3220 fluorescence intensity (a.u.).
For the sequence “ACGACTCAGCCCCACCGCGCCGCCTCCGACTCCACCCCATCGGAGTCACCTAGTGCAG”, the binding signal is 11700 fluorescence intensity (a.u.).
Take “ATCAACAAATATCATTTGCATCGCAAGAGTTGTTGAAAGTCGGAGTCACCTAGTGCAG”: the binding signal is 32200 fluorescence intensity (a.u.).
For the sequence “GGGCGAGCTCCCGCTTCTCCCCACCTGCTTCCCCGCCGCCCGGAGTCACCTAGTGCAG”, the binding signal was 3440 fluorescence intensity (a.u.).
Take “CAAGATAATGCCCTCCGCTAAGAGCTAAATCCATATGTCACGGAGTCACCTAGTGCAG”: the binding signal was 3340 fluorescence intensity (a.u.).
“CCCATACCCAAAGGCACGTGACGTGGACCGGACGCGTCCGCGGAGTCACCTAGTGCAG”: the binding signal was 18600 fluorescence intensity (a.u.).
Take “AACTATAAACTTCGGTTCGACAGTTCGGCACTCGACAATCCGGAGTCACCTAGTGCAG”: the binding signal was 5190 fluorescence intensity (a.u.).
Take “TTGCTATGTATGGGTATTGCTCTGTATCATGTGGGTACAACGGAGTCACCTAGTGCAG”: the binding signal was 3330 fluorescence intensity (a.u.).
As for “GATGGACACTAGCTAGCACCATCGGCCGTGCCGCGACGGACGGAGTCACCTAGTGCAG”, the binding signal is 9610 fluorescence intensity (a.u.).
The figure for “CATAAGGCATAAATGCTGAATCATTGTGCTGAAGCTGAACCGGAGTCACCTAGTGCAG” is 4080 fluorescence intensity (a.u.).
On to “TTTTAATTTCATAAATATTCAACAATTAAAACTAGATTTGCGGAGTCACCTAGTGCAG”, for which the binding signal is 3300 fluorescence intensity (a.u.).
Regarding “TTGGCGTGACTAGGCGCAATTTCTGCAAATTGGAGCTCGGCGGAGTCACCTAGTGCAG”, the binding signal was 7820 fluorescence intensity (a.u.).
In the case of “CGTGCTCGACCACGCCGGCTCGCCGGCGCGCCGCACCGACCGGAGTCACCTAGTGCAG”, the binding signal was 3360 fluorescence intensity (a.u.).
Take “TATTTGACTAGTCATGCAATATCTCTAGTGACTATACAAGCGGAGTCACCTAGTGCAG”: the binding signal is 3470 fluorescence intensity (a.u.).
